Test results reported in US20250241876A1, “ANTI-TUMOR COMPOUNDS AND METHODS OF USE THEREOF AND SYNTHESIS THEREOF” (Atossa Therapeutics, Inc., priority 2023, published 2025).
At least one compound was matched to its structure with a doubt left.

System: T47D cancer cells
Test: Cell cycle progression assay
Type: cell-based
Conditions: higher concentration (2.5, 5 μM)
Protocol: This example covers cell cycle progression assays with endoxifen and multiple endoxifen-related compounds on T47D cancer cells. FIGS. 63A-G are plots that show absolute cell counts for cells in different cell cycle phases (G1 through S; G1; and S, G2, and M) following treatment with vehicle (DMSO) or 1.25 μM endoxifen, Compound 7b, Compound 7a, Compound 5b, Compound 5a, and Compound 3, respectively. FIGS. 64A-G are plots that show percent cell counts for cells in different cell cycle phases following treatment with vehicle or 1.25 μM endoxifen, Compound 7b, Compound 7a, Compound 5b, Compound 5a, and Compound 3, respectively. FIGS. 65A-G are plots that show absolute cell counts for cells in different cell cycle phases following treatment with vehicle or 2.5 μM endoxifen, Compound 7b, Compound 7a, Compound 5b, Compound 5a, and Compound 3, respectively. FIGS. 66A-G are plots that show percent cell counts for cells in different cell cycle phases following treatment with vehicle or 2.5 μM endoxifen, Compound 7b, Compound 7a, Compound 5b, Compound 5a, and Compound 3, respectively. FIGS. 67A-G are plots that show absolute cell counts for cells in different cell cycle phases following treatment with vehicle or 5 μM endoxifen, Compound 7b, Compound 7a, Compound 5b, Compound 5a, and Compound 3, respectively. […]

CC/C(=C(\c1ccc(O)cc1)c1ccc(OCCNC)cc1)c1ccccc1 [endoxifen, reference compound]
cell cycle inhibition compared with endoxifen: superior efficacy in inhibiting cell cycle progression
